Consider 58 targets from the supplement of paper PMC6411743.

Chains of the proteins cited; added tags and fusions are not shown. Lines headed by an entry give the natural chain unless they say otherwise; changes in a name come on top.
UniProt Q15437: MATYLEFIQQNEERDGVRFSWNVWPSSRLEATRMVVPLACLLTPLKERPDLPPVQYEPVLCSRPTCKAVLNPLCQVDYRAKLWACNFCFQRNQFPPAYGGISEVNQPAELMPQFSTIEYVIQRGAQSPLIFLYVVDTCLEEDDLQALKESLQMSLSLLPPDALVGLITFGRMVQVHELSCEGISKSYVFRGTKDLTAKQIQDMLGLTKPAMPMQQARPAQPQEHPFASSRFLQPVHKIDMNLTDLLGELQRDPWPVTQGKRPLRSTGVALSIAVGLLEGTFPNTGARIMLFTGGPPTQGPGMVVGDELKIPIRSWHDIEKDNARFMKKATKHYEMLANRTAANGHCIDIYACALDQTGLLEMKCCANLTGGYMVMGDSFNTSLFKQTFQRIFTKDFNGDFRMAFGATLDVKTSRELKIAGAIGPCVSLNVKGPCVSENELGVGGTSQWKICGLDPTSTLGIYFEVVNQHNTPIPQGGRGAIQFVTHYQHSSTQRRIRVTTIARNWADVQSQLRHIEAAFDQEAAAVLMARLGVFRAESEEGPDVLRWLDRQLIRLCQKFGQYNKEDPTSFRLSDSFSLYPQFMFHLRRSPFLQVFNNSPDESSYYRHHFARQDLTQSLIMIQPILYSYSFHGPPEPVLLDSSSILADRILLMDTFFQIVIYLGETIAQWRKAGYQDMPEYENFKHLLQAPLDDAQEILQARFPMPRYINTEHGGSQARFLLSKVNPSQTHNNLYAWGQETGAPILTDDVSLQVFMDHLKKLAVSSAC
UniProt Q15714: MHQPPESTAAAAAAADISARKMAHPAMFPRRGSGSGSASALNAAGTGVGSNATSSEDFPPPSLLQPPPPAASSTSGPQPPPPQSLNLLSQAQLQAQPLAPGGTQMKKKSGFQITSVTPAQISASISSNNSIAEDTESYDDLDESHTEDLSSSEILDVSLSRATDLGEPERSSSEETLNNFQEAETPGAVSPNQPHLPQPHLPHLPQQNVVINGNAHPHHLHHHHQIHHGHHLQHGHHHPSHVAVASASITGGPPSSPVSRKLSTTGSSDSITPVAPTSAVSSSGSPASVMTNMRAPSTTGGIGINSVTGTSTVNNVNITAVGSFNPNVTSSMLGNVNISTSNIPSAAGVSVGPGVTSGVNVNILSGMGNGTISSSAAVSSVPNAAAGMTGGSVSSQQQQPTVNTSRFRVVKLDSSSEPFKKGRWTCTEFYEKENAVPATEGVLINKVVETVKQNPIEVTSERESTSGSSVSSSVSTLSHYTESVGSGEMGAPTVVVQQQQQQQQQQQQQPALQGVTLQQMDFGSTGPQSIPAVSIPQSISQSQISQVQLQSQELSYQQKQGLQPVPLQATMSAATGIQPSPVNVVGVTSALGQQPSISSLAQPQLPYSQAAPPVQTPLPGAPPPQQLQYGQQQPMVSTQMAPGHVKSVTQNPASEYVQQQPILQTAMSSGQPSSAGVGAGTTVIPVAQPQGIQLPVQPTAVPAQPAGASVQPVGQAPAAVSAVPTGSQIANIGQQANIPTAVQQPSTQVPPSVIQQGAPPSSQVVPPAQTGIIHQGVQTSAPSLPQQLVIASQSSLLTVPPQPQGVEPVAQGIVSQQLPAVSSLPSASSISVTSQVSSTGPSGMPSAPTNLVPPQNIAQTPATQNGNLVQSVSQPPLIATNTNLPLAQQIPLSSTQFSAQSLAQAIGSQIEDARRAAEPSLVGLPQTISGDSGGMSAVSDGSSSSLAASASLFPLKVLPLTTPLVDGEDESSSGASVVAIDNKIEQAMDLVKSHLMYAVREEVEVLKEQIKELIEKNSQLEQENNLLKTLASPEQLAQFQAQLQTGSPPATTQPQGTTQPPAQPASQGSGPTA
UniProt Q3SXY8: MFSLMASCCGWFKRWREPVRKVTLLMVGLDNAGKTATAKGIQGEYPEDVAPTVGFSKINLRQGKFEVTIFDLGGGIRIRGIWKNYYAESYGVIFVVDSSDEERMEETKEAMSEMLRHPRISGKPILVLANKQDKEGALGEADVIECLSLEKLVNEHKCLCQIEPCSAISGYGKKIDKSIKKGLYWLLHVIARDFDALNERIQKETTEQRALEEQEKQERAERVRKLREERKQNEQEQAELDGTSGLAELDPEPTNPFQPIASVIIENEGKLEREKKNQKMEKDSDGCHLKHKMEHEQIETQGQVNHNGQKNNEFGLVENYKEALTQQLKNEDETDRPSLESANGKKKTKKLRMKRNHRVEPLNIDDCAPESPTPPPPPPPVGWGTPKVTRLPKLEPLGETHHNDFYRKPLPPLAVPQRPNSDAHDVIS
UniProt Q5SRI9: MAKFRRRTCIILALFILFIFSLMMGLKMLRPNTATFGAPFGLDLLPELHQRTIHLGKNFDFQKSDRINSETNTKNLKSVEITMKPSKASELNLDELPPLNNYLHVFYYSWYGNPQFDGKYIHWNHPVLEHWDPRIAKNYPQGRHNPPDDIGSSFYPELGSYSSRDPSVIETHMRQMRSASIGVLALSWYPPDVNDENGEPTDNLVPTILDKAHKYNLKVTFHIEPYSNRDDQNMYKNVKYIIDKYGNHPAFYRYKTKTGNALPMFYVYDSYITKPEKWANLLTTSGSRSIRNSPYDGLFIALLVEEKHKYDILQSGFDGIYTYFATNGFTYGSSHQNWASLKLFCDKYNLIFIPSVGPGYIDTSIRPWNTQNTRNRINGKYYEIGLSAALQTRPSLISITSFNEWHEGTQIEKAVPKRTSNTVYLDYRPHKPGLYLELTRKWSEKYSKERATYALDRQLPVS
UniProt Q53HL2: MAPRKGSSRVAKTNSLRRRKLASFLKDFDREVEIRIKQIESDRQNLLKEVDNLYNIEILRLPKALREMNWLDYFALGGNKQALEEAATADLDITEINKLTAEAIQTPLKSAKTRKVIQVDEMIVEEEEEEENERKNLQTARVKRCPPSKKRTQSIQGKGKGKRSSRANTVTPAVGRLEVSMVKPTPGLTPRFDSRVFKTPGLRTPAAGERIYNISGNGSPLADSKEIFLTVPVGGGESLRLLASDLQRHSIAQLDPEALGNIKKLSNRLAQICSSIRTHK
UniProt Q58A45: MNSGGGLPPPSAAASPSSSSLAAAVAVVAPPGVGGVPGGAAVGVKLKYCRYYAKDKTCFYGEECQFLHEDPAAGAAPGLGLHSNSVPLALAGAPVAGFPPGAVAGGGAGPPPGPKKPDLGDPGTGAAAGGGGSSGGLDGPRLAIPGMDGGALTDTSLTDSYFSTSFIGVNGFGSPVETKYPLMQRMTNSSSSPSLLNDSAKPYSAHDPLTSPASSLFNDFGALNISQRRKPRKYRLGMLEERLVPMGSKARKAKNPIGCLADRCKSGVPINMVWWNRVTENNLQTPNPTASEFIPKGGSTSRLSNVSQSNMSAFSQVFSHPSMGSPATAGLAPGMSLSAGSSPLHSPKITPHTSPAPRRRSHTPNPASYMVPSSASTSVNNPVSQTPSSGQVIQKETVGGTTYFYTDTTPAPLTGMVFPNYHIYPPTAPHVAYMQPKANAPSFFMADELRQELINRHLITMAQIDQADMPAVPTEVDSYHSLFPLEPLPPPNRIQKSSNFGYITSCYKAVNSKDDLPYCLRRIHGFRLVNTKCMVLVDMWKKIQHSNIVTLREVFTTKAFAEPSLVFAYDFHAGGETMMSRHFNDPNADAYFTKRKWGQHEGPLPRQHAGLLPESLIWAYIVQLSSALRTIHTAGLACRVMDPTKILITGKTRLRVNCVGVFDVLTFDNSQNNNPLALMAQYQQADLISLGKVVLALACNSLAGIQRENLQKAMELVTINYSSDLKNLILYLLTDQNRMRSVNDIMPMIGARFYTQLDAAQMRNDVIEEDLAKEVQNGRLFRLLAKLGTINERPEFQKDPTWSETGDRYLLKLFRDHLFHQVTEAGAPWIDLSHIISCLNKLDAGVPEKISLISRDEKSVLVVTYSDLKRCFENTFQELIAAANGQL
UniProt Q5JTD0: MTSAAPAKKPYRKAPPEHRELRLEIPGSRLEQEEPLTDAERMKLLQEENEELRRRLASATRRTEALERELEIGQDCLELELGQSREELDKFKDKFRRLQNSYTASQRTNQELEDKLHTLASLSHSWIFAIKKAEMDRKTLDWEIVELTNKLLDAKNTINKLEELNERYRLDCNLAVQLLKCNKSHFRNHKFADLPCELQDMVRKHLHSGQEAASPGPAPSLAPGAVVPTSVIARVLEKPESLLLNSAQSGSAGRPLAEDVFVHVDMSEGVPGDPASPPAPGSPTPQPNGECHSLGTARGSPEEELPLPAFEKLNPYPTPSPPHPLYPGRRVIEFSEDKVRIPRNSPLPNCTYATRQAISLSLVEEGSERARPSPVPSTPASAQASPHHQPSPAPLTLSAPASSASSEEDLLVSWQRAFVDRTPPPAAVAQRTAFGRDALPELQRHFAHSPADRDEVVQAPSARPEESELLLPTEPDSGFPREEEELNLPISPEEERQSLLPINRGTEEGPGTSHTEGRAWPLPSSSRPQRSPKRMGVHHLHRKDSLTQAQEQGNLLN
UniProt Q29RF7: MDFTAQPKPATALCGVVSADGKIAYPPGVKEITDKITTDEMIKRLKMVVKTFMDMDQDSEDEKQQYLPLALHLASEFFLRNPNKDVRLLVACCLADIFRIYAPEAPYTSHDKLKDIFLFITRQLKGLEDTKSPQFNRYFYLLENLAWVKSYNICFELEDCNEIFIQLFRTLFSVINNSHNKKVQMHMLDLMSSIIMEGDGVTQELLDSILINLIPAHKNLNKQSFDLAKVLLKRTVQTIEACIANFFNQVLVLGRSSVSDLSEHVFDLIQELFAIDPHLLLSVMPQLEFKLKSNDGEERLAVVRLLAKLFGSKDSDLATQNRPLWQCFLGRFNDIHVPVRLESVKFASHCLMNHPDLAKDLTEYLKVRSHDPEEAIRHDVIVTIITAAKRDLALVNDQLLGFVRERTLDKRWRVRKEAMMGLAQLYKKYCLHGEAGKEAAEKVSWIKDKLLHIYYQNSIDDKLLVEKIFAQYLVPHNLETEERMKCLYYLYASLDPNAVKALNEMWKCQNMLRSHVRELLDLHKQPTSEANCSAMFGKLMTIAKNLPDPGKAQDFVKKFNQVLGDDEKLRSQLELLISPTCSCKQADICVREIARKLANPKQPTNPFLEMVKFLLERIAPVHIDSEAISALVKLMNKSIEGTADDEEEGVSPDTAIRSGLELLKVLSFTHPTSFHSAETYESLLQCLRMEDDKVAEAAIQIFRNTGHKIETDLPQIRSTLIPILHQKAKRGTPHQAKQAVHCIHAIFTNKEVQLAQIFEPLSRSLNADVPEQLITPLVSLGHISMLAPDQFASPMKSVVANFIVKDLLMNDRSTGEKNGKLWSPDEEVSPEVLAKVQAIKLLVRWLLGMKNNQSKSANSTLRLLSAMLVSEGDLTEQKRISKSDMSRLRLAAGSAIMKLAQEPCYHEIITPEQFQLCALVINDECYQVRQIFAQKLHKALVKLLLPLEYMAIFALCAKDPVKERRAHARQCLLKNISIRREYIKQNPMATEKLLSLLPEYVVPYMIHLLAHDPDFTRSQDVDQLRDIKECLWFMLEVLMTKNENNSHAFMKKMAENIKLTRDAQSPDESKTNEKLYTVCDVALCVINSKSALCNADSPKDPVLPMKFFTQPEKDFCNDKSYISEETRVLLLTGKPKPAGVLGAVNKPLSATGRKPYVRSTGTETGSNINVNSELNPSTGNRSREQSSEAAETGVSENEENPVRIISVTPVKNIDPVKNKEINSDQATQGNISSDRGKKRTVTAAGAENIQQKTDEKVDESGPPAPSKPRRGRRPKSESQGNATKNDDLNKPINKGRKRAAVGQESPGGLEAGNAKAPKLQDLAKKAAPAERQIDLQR
UniProt Q15773: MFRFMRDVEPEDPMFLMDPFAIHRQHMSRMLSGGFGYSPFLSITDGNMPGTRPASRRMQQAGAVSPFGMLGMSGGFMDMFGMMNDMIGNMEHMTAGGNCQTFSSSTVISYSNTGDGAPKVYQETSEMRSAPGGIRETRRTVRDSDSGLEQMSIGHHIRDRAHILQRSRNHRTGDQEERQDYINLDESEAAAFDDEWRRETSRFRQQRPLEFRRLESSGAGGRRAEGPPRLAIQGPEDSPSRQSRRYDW
UniProt Q32P41: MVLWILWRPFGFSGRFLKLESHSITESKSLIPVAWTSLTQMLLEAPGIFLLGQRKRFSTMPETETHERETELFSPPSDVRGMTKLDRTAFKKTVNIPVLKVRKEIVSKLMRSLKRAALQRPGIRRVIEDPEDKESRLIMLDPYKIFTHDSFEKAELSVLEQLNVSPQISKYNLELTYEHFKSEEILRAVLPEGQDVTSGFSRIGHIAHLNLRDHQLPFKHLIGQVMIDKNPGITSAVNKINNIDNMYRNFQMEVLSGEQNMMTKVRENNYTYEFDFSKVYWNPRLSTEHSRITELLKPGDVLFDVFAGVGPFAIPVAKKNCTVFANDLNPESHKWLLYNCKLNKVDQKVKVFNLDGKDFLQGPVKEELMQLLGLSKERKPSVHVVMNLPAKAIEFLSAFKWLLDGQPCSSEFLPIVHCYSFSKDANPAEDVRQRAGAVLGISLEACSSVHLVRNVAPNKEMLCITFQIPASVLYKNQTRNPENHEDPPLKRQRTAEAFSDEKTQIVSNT

Compound in this experiment: Nc1ncnc2c1ncn2[C@@H]1O[C@H](COP(=O)(O)OP(=O)(O)NP(=O)(O)O)[C@@H](O)[C@H]1O [adenylyl imidodiphosphate]
Nature of the experiment: NP40-soluble protein abundance relative to vehicle (solubility fold change) (ratio); higher = more soluble protein in presence of AMP-PNP. Put shortly:
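Eight concentrations, 0.1 to 10 mM, were tested on Jurkat crude lysate for 10 min at room temperature and then 3 min at 37 °C, in three independent experiments. The lysate was solubilised with 0.8% NP40 and benzonase, ultracentrifuged, and the supernatant TMT-labelled for LC-MS/MS. Each value is the fold change against the detergent-processed vehicle in its own replicate, from vsn-normalised intensities.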

± gives the standard deviation of the averaged measurements. The entries are a selection whose mix differs from that of the whole data set. Most values lie at the level of the controls, where differences are scatter.

As for UniProt Q15390 and related entries, the NP40-soluble protein abundance by setting is: (concentration: 0.1mM) 0.999 ± 0.022; (concentration: 0.5mM) 0.983 ± 0.034.

As to HS1BP3 (UniProt Q53T59), the NP40-soluble protein abundance reads like this: (concentration: 0.1mM) 1 ± 0.028; (concentration: 0.5mM) 0.9987 ± 0.0074.

In the case of ZYX (UniProt Q15942), the NP40-soluble protein abundance (concentration: 0.1mM) is 0.993 ± 0.022 and the NP40-soluble protein abundance (concentration: 0.5mM) was 1 ± 0.039.

As for EXOSC6 (UniProt Q5RKV6), the NP40-soluble protein abundance by setting is: (concentration: 0.1mM) 1.03 ± 0.018; (concentration: 0.5mM) 1.04 ± 0.018.

Turning to SEC23B (UniProt Q15437), the NP40-soluble protein abundance by setting is: (concentration: 0.1mM) 1.05 ± 0.025; (concentration: 0.5mM) 1.02 ± 0.056.

In the case of UniProt Q32P28 and related entries, the NP40-soluble protein abundance by setting is: (concentration: 0.1mM) 0.978 ± 0.011; (concentration: 0.5mM) 0.985 ± 0.019.

Regarding GFOD2 (UniProt Q3B7J2), the NP40-soluble protein abundance was found to be 0.996 ± 0.019 (concentration: 0.1mM) and 1.002 ± 0.0037 (concentration: 0.5mM).

Consider “UniProt Q15642-2|Q15642-3|Q15642-4|W4VSQ9 and related entries”, for which the NP40-soluble protein abundance reads like this: (concentration: 0.1mM) 1.061 ± 0.0058; (concentration: 0.5mM) 1.07 ± 0.043.

In the case of “Q5TZT0 and related entries (UniProt Q9NSU2)”, the NP40-soluble protein abundance by setting is: (concentration: 0.1mM) 0.9818 ± 0.0095; (concentration: 0.5mM) 0.981 ± 0.013.

Regarding “Q5TH58 and related entries (UniProt Q9H6K1)”, the NP40-soluble protein abundance was found to be 0.988 ± 0.029 (concentration: 0.1mM) and 1.003 ± 0.0021 (concentration: 0.5mM).

Regarding PMVK (UniProt Q15126), the NP40-soluble protein abundance (concentration: 0.1mM) was determined as 0.999 ± 0.022 and the NP40-soluble protein abundance (concentration: 0.5mM) stood at 0.988 ± 0.036.

As to UAP1L1 (UniProt Q3KQV9), the NP40-soluble protein abundance by setting is: (concentration: 0.1mM) 1.01 ± 0.012; (concentration: 0.5mM) 0.981 ± 0.024.

DNTTIP2 (UniProt Q5QJE6): the NP40-soluble protein abundance is 0.989 ± 0.058 (concentration: 0.1mM) and 1.04 ± 0.043 (concentration: 0.5mM).

For TSC22D1 (UniProt Q15714), the NP40-soluble protein abundance is, setting by setting: (concentration: 0.1mM) 0.9824 ± 0.0027; (concentration: 0.5mM) 1 ± 0.044.

Consider MED1 (UniProt Q15648), for which the NP40-soluble protein abundance (concentration: 0.1mM) worked out at 1.02 ± 0.014 and the NP40-soluble protein abundance (concentration: 0.5mM) worked out at 1.02 ± 0.025.

On to SF3B3 (UniProt Q15393), for which the NP40-soluble protein abundance (concentration: 0.1mM) was determined as 1.029 ± 0.0052 and the NP40-soluble protein abundance (concentration: 0.5mM) came out at 1.02 ± 0.072.

For ARL13B (UniProt Q3SXY8), the NP40-soluble protein abundance runs as follows: (concentration: 0.1mM) 0.99 ± 0.04; (concentration: 0.5mM) 1.01 ± 0.015.

In the case of AMOT (UniProt Q4VCS5), the NP40-soluble protein abundance amounted to 0.991 ± 0.035 (concentration: 0.1mM) and 1.01 ± 0.018 (concentration: 0.5mM).

Consider “Q15392 and related entries (UniProt Q3LIE7+Q15392)”, for which the NP40-soluble protein abundance runs as follows: (concentration: 0.1mM) 1.05 ± 0.026; (concentration: 0.5mM) 1.02 ± 0.16.

For MANEA (UniProt Q5SRI9), the NP40-soluble protein abundance reads like this: (concentration: 0.1mM) 0.988 ± 0.041; (concentration: 0.5mM) 1 ± 0.038.

For the target UniProt Q15438 and related entries, the NP40-soluble protein abundance is, setting by setting: (concentration: 0.1mM) 0.993 ± 0.039; (concentration: 0.5mM) 0.978 ± 0.037.

In the case of TOMM34 (UniProt Q15785), the NP40-soluble protein abundance reads like this: (concentration: 0.1mM) 0.988 ± 0.024; (concentration: 0.5mM) 1.02 ± 0.062.

Take UniProt Q16539 and related entries: the NP40-soluble protein abundance reads like this: (concentration: 0.1mM) 1.04 ± 0.034; (concentration: 0.5mM) 1.03 ± 0.063.

For the target UniProt Q5T4S7 and related entries, the NP40-soluble protein abundance by setting is: (concentration: 0.1mM) 1.03 ± 0.021; (concentration: 0.5mM) 0.978 ± 0.067.

As to SURF2 (UniProt Q15527), the NP40-soluble protein abundance runs as follows: (concentration: 0.1mM) 1.013 ± 0.0084; (concentration: 0.5mM) 1.03 ± 0.04.

CEP55 (UniProt Q53EZ4): the NP40-soluble protein abundance reads like this: (concentration: 0.1mM) 0.969 ± 0.027; (concentration: 0.5mM) 0.991 ± 0.045.

UniProt Q15435 and related entries: the NP40-soluble protein abundance by setting is: (concentration: 0.1mM) 0.992 ± 0.041; (concentration: 0.5mM) 1.01 ± 0.038.

Consider ETFDH (UniProt Q16134), for which the NP40-soluble protein abundance is 1.008 ± 0.0017 (concentration: 0.1mM) and 0.9962 ± 0.0088 (concentration: 0.5mM).

On to UniProt Q5SWX8, for which the NP40-soluble protein abundance turned out to be 0.996 ± 0.03 (concentration: 0.1mM) and 1 ± 0.021 (concentration: 0.5mM).

Regarding UniProt Q53GL0, the NP40-soluble protein abundance was determined as 0.999 ± 0.041 (concentration: 0.1mM) and 1.03 ± 0.059 (concentration: 0.5mM).

CDCA8 (UniProt Q53HL2): the NP40-soluble protein abundance by setting is: (concentration: 0.1mM) 1.03 ± 0.025; (concentration: 0.5mM) 1.02 ± 0.053.

For UniProt Q460N5 and related entries, the NP40-soluble protein abundance (concentration: 0.1mM) is 1.01 ± 0.029 and the NP40-soluble protein abundance (concentration: 0.5mM) came out at 0.977 ± 0.02.

As for UniProt Q58A45 and related entries, the NP40-soluble protein abundance (concentration: 0.1mM) came out at 1.01 ± 0.043 and the NP40-soluble protein abundance (concentration: 0.5mM) was found to be 1.01 ± 0.049.

As to UniProt Q5JTD0 and related entries, the NP40-soluble protein abundance was 1.01 ± 0.022 (concentration: 0.1mM) and 1 ± 0.027 (concentration: 0.5mM).

In the case of AGK (UniProt Q53H12), the NP40-soluble protein abundance (concentration: 0.1mM) turned out to be 1.02 ± 0.037 and the NP40-soluble protein abundance (concentration: 0.5mM) was determined as 0.954 ± 0.071.

For PDS5A (UniProt Q29RF7), the NP40-soluble protein abundance amounted to 0.9941 ± 0.0097 (concentration: 0.1mM) and 1.002 ± 0.0012 (concentration: 0.5mM).

HECTD3 (UniProt Q5T447): the NP40-soluble protein abundance runs as follows: (concentration: 0.1mM) 0.993 ± 0.01; (concentration: 0.5mM) 0.963 ± 0.052.

As for MLF2 (UniProt Q15773), the NP40-soluble protein abundance (concentration: 0.1mM) came to 1 ± 0.057 and the NP40-soluble protein abundance (concentration: 0.5mM) came to 0.947 ± 0.027.

As for ERCC6L (UniProt Q2NKX8), the NP40-soluble protein abundance was 0.9733 ± 0.0036 (concentration: 0.1mM) and 0.974 ± 0.027 (concentration: 0.5mM).

For the target ADRM1 (UniProt Q16186), the NP40-soluble protein abundance was 0.992 ± 0.053 (concentration: 0.1mM) and 0.965 ± 0.056 (concentration: 0.5mM).

Take “UniProt Q5JPI3-2|E9PFZ1 and related entries”: the NP40-soluble protein abundance is, setting by setting: (concentration: 0.1mM) 0.989 ± 0.079; (concentration: 0.5mM) 0.998 ± 0.034.

For HP1BP3 (UniProt Q5SSJ5), the NP40-soluble protein abundance runs as follows: (concentration: 0.1mM) 0.992 ± 0.039; (concentration: 0.5mM) 0.99 ± 0.042.

As for MAPKAPK3 (UniProt Q16644), the NP40-soluble protein abundance is, setting by setting: (concentration: 0.1mM) 0.961 ± 0.015; (concentration: 0.5mM) 1.01 ± 0.039.

Regarding NDUFA9 (UniProt Q16795), the NP40-soluble protein abundance reads like this: (concentration: 0.1mM) 1.029 ± 0.0085; (concentration: 0.5mM) 0.957 ± 0.12.

As for UniProt Q15286, the NP40-soluble protein abundance came out at 0.972 ± 0.044 (concentration: 0.1mM) and 0.976 ± 0.037 (concentration: 0.5mM).

Turning to UniProt Q5SQI0 and related entries, the NP40-soluble protein abundance was 0.9952 ± 0.0037 (concentration: 0.1mM) and 0.9995 ± 0.0094 (concentration: 0.5mM).

For the target PUS10 (UniProt Q3MIT2), the NP40-soluble protein abundance reads like this: (concentration: 0.1mM) 1.01 ± 0.015; (concentration: 0.5mM) 0.987 ± 0.036.

As to ZNF800 (UniProt Q2TB10), the NP40-soluble protein abundance reads like this: (concentration: 0.1mM) 1 ± 0.015; (concentration: 0.5mM) 1.04 ± 0.015.

Regarding UniProt Q5TKA1 and related entries, the NP40-soluble protein abundance came out at 0.992 ± 0.02 (concentration: 0.1mM) and 1.01 ± 0.04 (concentration: 0.5mM).

As for UniProt Q16656 and related entries, the NP40-soluble protein abundance was found to be 1.03 ± 0.072 (concentration: 0.1mM) and 1 ± 0.05 (concentration: 0.5mM).

With UniProt Q15599 and related entries, the NP40-soluble protein abundance stood at 1.01 ± 0.028 (concentration: 0.1mM) and 1.03 ± 0.032 (concentration: 0.5mM).

For the target UniProt Q16643 and related entries, the NP40-soluble protein abundance is, setting by setting: (concentration: 0.1mM) 1.01 ± 0.039; (concentration: 0.5mM) 1.15 ± 0.048.

As to ZC3H12A (UniProt Q5D1E8), the NP40-soluble protein abundance (concentration: 0.1mM) was 0.998 ± 0.012 and the NP40-soluble protein abundance (concentration: 0.5mM) came to 0.9939 ± 0.0044.

On to UniProt Q5TA45 and related entries, for which the NP40-soluble protein abundance is, setting by setting: (concentration: 0.1mM) 1.02 ± 0.066; (concentration: 0.5mM) 0.997 ± 0.039.

As to UniProt Q5SGD2 and related entries, the NP40-soluble protein abundance is, setting by setting: (concentration: 0.1mM) 1.031 ± 0.0056; (concentration: 0.5mM) 1.02 ± 0.017.

As to UniProt Q2KHR3 and related entries, the NP40-soluble protein abundance runs as follows: (concentration: 0.1mM) 1.013 ± 0.0053; (concentration: 0.5mM) 1.02 ± 0.035.

For the target TRMT5 (UniProt Q32P41), the NP40-soluble protein abundance (concentration: 0.1mM) turned out to be 0.984 ± 0.011 and the NP40-soluble protein abundance (concentration: 0.5mM) was 1 ± 0.068.

In the case of “Q5TH30 and related entries (UniProt Q9UGV2)”, the NP40-soluble protein abundance was found to be 1.02 ± 0.044 (concentration: 0.1mM) and 1.01 ± 0.019 (concentration: 0.5mM).
